Values joined by “and” are separate entries in the source; they are usually repeats but may differ in a detail not shown here. Identical values can stand only once. Screen size: about 320,000 compounds; about 740 (0.23%) were called active. The inconclusive results got no clear call from the source; some entries with a clear call stand among them for comparison. Calls follow the shape of the dose curve; as a rule, active = well fitted activation curve with a large enough effect; inconclusive = small, poorly fitted or top-dose-only effect; inactive = no such curve, though single readings can be large or run the other way. Where the call is inconclusive, the potency comes from a doubtful curve fit. The source holds several records for some structures; these can differ, active in one and inactive in another.
Assay: qHTS Assay for Small Molecule Inhibitors of Mitochondrial Division or Activators of Mitochondrial Fusion; also: nearly all actives have a fitted effect of over 45% in size
Conditions: S. cerevisiae fusion-defective mutant growth rescue, CellTiterGlo 48 h; series mostly up to 46.1 µM
Procedure, shortened: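 Read-out: ATP-based luminescence (CellTiterGlo, 10 min ambient) reporting growth of fusion-defective ts yeast after 48 hours at 37C on glycerol/ethanol YPEG medium in the presence of compound.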
For Cc1ccnc(NC(=O)c2cccc(S(=O)(=O)N3CCN(c4ccc(F)cc4)CC3)c2)c1, the Potency was inconclusive: 11.2 µM [activator, single point]. In the case of COc1ccc(Nc2ccccc2NC(=O)c2ccccc2Br)cc1, the Potency is reported as inconclusive: 35.5 µM [activator, single point]. In the case of Cc1cccc(C)c1Nc1nnc(SCC(=O)c2ccc(Br)s2)s1, the Potency is reported as active: 17.8 µM. For O=C(O)c1ccc(NC2=C(Cl)C(=O)c3ccccc3C2=O)cc1, the Potency was inconclusive: 35.5 µM [activator, single point]. For C=C(C)C1CC=C(C)/C(=N\NC(=O)CNc2ccccc2OC)C1 (stereo not drawn), the Potency was “inactive”. For COc1cccc(-c2nnc(NC(=O)c3cccs3)s2)c1, the Potency was “inactive”. In the case of O=C(Nc1ccc(NC(=O)c2sc3ccccc3c2Cl)cc1Cl)c1ccco1, the Potency is reported as “inactive”. With CCN(CC)CCCn1c(C)cc2c(c1=O)C(c1ccccc1)C(C#N)=C(N)O2 (stereo not drawn) the Potency was active: 11.2 µM. For CCC1CCCCN1S(=O)(=O)c1ccc(NC(=O)c2cccs2)cc1 (stereo not drawn), the Potency was active: 15.8 µM. For Cc1nn(CC(=O)NCCC2=CCCCC2)c(C)c1[N+](=O)[O-], the Potency was “inactive”. For O=c1c2c(c(-c3ccccc3)nn1Cc1ccccc1)CCCC2, the Potency was inconclusive: 20 µM [activator, partial curve]. With Cc1cc2c(c(Sc3ccccc3)n1)C(=O)OC2 the Potency was inconclusive: 12.6 µM [activator, single point]. In the case of c1ccc2cc(CSCc3nc4ccccc4[nH]3)ccc2c1, the Potency is reported as inconclusive: 31.6 µM [activator, single point]. For COc1ccc(C(=O)CSc2ccc(-c3ccc(C)cc3)nn2)cc1, the Potency was inconclusive: 12.6 µM [activator, partial curve]. For O=[N+]([O-])c1ccc(N2CCCC2)cc1N1CCCC1, the Potency was “inactive”. For COc1ccc([C@H]2CC(=O)C=C(c3cccc(C(C)C)c3)C2)cc1OC, the Potency was inconclusive: 11.2 µM [activator, single point]. With Cc1ccc(Nc2c(-c3ccccc3O)nc3cnccn23)cc1 the Potency was inconclusive: 12.6 µM [activator, partial curve]. For CCOC(=O)c1ccc(NC(=O)CSc2nc3sc(C(=O)O)c(C)c3c(=O)[nH]2)cc1, the Potency was “inactive”. In the case of CCNC(=S)Nc1cccc(F)c1C, the Potency is reported as “inactive”. With Cc1ccc(C)c(N2CCN(c3ncnc4c3cnn4-c3ccccc3)CC2)c1 the Potency was “inactive”. In the case of COC(=O)c1ccccc1NC(=O)c1noc2c1CCCC2, the Potency is reported as inconclusive: 14.1 µM [activator, partial curve]. In the case of CCOC(=O)c1c(CSc2ccc(C)cc2)oc2ccc(O)cc12, the Potency is reported as inconclusive: 12.6 µM [activator, partial curve]. For CC1Cc2ccccc2N1S(=O)(=O)c1cnc(Cl)c(Cl)c1 (stereo not drawn), the Potency was “inactive”. For CC(C)(C)C(=O)N1CCC[C@H]1C(O)(c1ccccc1)c1ccccc1, the Potency was active: 35.5 µM. In the case of O=C(O)/C=C/C(=O)Nc1ccc(SC(F)(F)C(F)(F)C(F)(F)F)cc1, the Potency is reported as inconclusive: 35.5 µM [activator, single point]. In the case of CCC(C)c1ccccc1NC(=O)c1[nH]c(C)c(C(C)=O)c1C (stereo not drawn), the Potency is reported as inconclusive: 12.6 µM [activator, single point]. With CN(c1ccccc1)S(=O)(=O)c1ccc(NC(=S)NC(=O)C2CC2)cc1 the Potency was inconclusive: 31.6 µM [activator, single point]. With O=C(CCc1ccc(Oc2cc([N+](=O)[O-])cc([N+](=O)[O-])c2)cc1)Nc1cccc(Cl)c1 the Potency was inconclusive: 11.2 µM [activator, partial curve]. In the case of CC(C)(C)Cc1nnc(NC(=O)c2ccco2)s1, the Potency is reported as “inactive”. With CCC(=O)NCCc1nc2cc(NC(=O)c3cccc([N+](=O)[O-])c3)ccc2n1C the Potency was “inactive”. In the case of Cn1c(=O)n(CCc2ccccc2)c(=O)c2c1nc1n2CCCN1CCc1ccccc1, the Potency is reported as inconclusive: 11.2 µM [activator, partial curve]. In the case of COc1ccc(/C=C/C(=O)c2ccc(NS(=O)(=O)c3ccc(C)cc3)cc2)cc1O, the Potency is reported as inconclusive: 22.4 µM [activator, single point]. For CN1CCc2c(OCC(=O)N3N=C(c4cccs4)CC3c3ccc(F)cc3)cccc2C1=O (stereo not drawn), the Potency was inconclusive: 35.5 µM [activator, single point]. With CCN1C(=O)[C@H]2[C@@H](c3ccc(-c4ccc(OC)cc4)c(OC)c3)N3CCCC[C@@]3(C(=O)OC)[C@H]2C1=O the Potency was inconclusive: 11.2 µM [activator, partial curve]. In the case of CCOC(=O)N1CCN(C(=O)COC(=O)c2cccc(S(C)(=O)=O)c2)CC1, the Potency is reported as “inactive”. With Cc1ccc(C(=O)NCC(c2ccco2)N2CCc3ccccc3C2)cc1 (stereo not drawn) the Potency was “inactive”. With Cc1ccc(C(=O)N/N=C/c2ccc(-c3cccc(C(F)(F)F)c3)o2)cn1 the Potency was “inactive”. With O=C(O)CCc1ccc(-c2cccs2)n1CC(=O)Nc1ccccc1C(F)(F)F the Potency was inconclusive: 22.4 µM [activator, single point]. With C=CCn1c(SCCOc2ccccc2)nnc1C(C)NC(=O)c1ccccc1 (stereo not drawn) the Potency was “inactive”. With CC1CCN(C(=O)c2[nH]cnc2C(=O)Nc2ccc(Cl)cc2)CC1 the Potency was inconclusive: 31.6 µM [activator, single point]. For C=CCOc1ccc(/C(O)=C2\C(=O)C(=O)N(CCOC)C2c2cccnc2)cc1 (stereo not drawn), the Potency was “inactive”. With COc1ccc(C2=CC(=O)C[C@H](c3ccc(F)cc3)C2)c(OC)c1 the Potency was inconclusive: 22.4 µM [activator, single point]. With C=CCC(CC=C)(NC(=O)c1ccccc1C(=O)O)c1ccccc1 the Potency was “inactive”. With CC1=CC(=O)C(C(C)C)=CC1=NC(=O)c1ccc(C)cc1 the Potency was “inactive”. With O=C(c1cc2nc(-c3cccs3)cc(C(F)(F)Cl)n2n1)N1CCCc2ccccc21 the Potency was “inactive”. With Cc1ccc(CN2CC(=O)N3[C@H]4c5ccccc5OC[C@@H]4[C@H](c4ccccc4)[C@]3(C)C2=O)cc1 the Potency was inconclusive: 12.6 µM [activator, single point]. For N#CC(C(=O)c1ccco1)c1ccccn1 (stereo not drawn), the Potency was “inactive”. In the case of COc1cccc(N2CCN(C(=O)C3CCCN(c4ncnc5c4nc4n5CCCCC4)C3)CC2)c1 (stereo not drawn), the Potency is reported as inconclusive: 15.8 µM [activator, partial curve]. In the case of Fc1ccc(N2CCN(C(c3cccs3)c3nnnn3CCc3ccccc3)CC2)cc1 (stereo not drawn), the Potency is reported as inconclusive: 12.6 µM [activator, partial curve]. In the case of CC(=O)NC(=S)Nc1ccc(N2CCOCC2)c(S(=O)(=O)Nc2cc(Cl)ccc2Cl)c1, the Potency is reported as inconclusive: 35.5 µM [activator, single point]. In the case of COc1ccc(C2CC(=O)c3cnc(NC(=O)c4ccccc4OC)nc3C2)c(OC)c1 (stereo not drawn), the Potency is reported as inconclusive: 11.2 µM [activator, partial curve]. In the case of COc1cc(-c2nnc(-c3ccc(N4CCOCC4)cc3)o2)cc(OC)c1OC, the Potency is reported as “inactive”. In the case of CC(C(O)c1ccc(O)cc1)N1CCC(Cc2ccccc2)CC1 (stereo not drawn), the Potency is reported as active: 16.4 µM. With COc1ccc(-c2c3c(nc4sc(C(=O)Nc5cc(C)on5)c(N)c24)CCC3)cc1 the Potency was inconclusive: 8.91 µM [activator, partial curve]. For FC(F)(F)c1cnc(Sc2nc3nccc(-c4ccc(Cl)cc4)n3n2)c(Cl)c1, the Potency was inconclusive: 3.16 µM [activator, full curve]. With Cc1ccc(NC(=O)Cn2c(O)c(N=NC(=O)c3cc([N+](=O)[O-])ccc3O)c3ccccc32)cc1 the Potency was inconclusive: 31.6 µM [activator, single point]. With CCOc1ccc(NC(=O)Nc2cc(-c3ccccc3)sc2C(=O)OC)cc1 the Potency was inconclusive: 11.2 µM [activator, partial curve]. In the case of CCc1nnc(NC(=O)CSc2nccn2-c2cccc(C)c2C)s1, the Potency is reported as “inactive”. In the case of CCc1cc(=O)oc2c(C)c(OCC(=O)NCC3CCC(C(=O)O)CC3)ccc12 (stereo not drawn), the Potency is reported as “inactive”. In the case of COc1ccc(C/C(N)=N/OC(C)=O)cc1OC, the Potency is reported as “inactive”. In the case of O=C(O)C1=CC(=C(c2ccc(O)c(C(=O)O)c2)c2ccc(O)c(C(=O)O)c2)C=CC1=O, the Potency is reported as active: 13 µM. With COc1ccccc1NS(=O)(=O)c1cc([N+](=O)[O-])ccc1N/N=C/c1c[nH]c2ccccc12 the Potency was “inactive”. For CCCCC(NC(=O)COc1cc2c(c3oc(=O)cc(C)c13)CCC(C)(C)O2)C(=O)O (stereo not drawn), the Potency was “inactive”. With COc1ccc(N=Nc2nc(-c3ccccc3)c(-c3ccccc3)[nH]2)cc1 the Potency was inconclusive: 7.08 µM [activator, partial curve]. For CCOc1ccc(C(C)=O)cc1COC(=O)c1ccccc1C(=O)N(C)Cc1ccccc1, the Potency was inconclusive: 12.6 µM [activator, single point]. With CSCCOC(=O)COc1ccc(/C=N/NC(=O)c2c(Cl)cnn2C)cc1 the Potency was “inactive”. For COCCCNC(=S)Nc1ccc(N2CCCCC2)cc1, the Potency was “inactive”. For O=C(CSCc1ccccc1)NNc1c(F)c(F)cc(F)c1F, the Potency was inconclusive: 35.5 µM [activator, single point]. In the case of CC#C[C@]1(O)CC[C@H]2[C@@H]3CCC4=CC(=O)CCC4=C3[C@@H](c3ccc(N(C)C)cc3)C[C@@]21C, the Potency is reported as “inactive and active: 9.2 µM”. For CCn1ncc([N+](=O)[O-])c1C(=O)Nc1ccc(C(=O)N2CCCCC2)cc1, the Potency was “inactive”. With COc1cc(SC)ccc1C(=O)N1CCC(Cc2ccccc2)CC1 the Potency was active: 20.6 µM. For O=C(C(c1ccccc1)c1ccccc1)N1CCN(CCN2C(=O)c3cccc4cccc(c34)C2=O)CC1, the Potency was inconclusive: 20 µM [activator, single point]. With COc1cc(/C=C/C(=O)OCC(=O)N2CCC(Cc3ccccc3)CC2)ccc1O the Potency was inconclusive: 31.6 µM [activator, single point].

From PubChem BioAssay AID485298 (National Center for Advancing Translational Sciences (NCATS), 2010)
Potency is read from the fitted curve at half-maximal effect.
